# Assay results published in the supplement of paper PMC12823440, “Inhibitors supercharge kinase turnover through native proteolytic circuits” (Nature, 2025).
# Sequences of proteins named here, by UniProt entry; tags and fusion partners are left off. A change or cut given only in a name is not applied to a line headed by its entry.
# UniProt Q15208: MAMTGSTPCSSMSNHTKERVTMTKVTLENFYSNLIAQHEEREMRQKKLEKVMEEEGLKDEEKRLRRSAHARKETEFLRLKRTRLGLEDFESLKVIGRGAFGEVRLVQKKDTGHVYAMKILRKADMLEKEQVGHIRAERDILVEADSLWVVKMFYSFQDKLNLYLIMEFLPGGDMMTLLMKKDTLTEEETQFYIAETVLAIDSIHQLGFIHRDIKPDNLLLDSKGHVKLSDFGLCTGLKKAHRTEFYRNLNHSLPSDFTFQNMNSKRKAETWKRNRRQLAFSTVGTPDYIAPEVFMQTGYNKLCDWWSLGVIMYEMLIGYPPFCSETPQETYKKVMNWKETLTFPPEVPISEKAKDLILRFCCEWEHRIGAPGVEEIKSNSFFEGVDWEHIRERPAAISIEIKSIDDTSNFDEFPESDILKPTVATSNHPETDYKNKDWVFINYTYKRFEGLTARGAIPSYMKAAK
# UniProt P29597: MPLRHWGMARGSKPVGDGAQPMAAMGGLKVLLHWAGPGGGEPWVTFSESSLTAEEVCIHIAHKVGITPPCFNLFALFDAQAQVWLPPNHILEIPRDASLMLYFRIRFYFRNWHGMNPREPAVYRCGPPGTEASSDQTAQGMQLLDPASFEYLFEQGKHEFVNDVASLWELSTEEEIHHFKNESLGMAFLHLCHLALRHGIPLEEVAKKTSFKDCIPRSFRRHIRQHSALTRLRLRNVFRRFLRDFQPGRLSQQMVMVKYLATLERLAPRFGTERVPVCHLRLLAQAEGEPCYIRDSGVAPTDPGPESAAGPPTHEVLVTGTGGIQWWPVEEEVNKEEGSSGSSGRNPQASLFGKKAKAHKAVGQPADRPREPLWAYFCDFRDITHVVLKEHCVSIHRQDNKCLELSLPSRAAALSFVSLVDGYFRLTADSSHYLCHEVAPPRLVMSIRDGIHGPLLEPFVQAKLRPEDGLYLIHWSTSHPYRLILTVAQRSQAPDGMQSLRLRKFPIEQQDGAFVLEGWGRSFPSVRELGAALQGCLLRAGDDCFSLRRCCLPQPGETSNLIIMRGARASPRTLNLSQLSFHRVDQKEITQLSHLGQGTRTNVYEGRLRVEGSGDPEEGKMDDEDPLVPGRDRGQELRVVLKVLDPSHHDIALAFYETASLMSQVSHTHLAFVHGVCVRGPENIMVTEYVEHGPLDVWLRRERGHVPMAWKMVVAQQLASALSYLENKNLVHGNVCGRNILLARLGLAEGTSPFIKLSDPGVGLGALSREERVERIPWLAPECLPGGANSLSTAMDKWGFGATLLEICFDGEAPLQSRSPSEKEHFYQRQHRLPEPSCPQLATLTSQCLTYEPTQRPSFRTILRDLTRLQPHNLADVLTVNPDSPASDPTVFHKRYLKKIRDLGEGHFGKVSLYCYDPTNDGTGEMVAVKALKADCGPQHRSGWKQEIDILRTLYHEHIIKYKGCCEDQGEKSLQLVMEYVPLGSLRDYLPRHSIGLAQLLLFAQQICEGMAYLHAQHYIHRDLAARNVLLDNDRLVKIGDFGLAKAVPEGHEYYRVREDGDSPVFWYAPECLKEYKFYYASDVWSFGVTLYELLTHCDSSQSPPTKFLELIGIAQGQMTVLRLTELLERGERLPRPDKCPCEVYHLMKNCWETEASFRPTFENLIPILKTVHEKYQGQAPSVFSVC
# UniProt Q6PHR2: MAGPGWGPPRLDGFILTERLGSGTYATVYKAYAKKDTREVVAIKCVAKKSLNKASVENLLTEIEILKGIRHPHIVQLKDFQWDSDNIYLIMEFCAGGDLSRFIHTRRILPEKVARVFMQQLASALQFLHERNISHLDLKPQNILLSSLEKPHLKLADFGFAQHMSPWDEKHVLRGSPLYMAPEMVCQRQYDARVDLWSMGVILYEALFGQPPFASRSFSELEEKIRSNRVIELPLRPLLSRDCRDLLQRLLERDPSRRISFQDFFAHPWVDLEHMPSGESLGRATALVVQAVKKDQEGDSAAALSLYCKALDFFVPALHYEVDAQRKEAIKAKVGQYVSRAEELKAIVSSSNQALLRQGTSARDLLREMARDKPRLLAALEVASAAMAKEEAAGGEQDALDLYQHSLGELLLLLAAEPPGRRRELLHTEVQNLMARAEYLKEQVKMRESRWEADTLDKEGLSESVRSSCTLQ
# UniProt P43403: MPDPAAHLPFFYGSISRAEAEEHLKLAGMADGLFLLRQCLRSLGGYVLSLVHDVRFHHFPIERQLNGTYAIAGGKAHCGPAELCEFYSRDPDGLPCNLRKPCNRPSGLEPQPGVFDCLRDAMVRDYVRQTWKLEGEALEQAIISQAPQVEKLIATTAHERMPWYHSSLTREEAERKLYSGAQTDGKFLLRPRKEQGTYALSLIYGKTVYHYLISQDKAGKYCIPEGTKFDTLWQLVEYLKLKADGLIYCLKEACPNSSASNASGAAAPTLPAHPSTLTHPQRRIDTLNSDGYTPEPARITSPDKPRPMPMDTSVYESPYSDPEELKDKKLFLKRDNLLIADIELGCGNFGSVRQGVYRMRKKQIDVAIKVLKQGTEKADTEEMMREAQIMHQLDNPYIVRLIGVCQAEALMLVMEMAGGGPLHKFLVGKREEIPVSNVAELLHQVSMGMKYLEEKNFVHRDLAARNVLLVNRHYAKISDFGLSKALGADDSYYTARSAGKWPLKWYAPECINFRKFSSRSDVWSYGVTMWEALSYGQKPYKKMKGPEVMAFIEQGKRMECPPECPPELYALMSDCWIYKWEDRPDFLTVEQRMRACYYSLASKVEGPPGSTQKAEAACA
# UniProt O14965: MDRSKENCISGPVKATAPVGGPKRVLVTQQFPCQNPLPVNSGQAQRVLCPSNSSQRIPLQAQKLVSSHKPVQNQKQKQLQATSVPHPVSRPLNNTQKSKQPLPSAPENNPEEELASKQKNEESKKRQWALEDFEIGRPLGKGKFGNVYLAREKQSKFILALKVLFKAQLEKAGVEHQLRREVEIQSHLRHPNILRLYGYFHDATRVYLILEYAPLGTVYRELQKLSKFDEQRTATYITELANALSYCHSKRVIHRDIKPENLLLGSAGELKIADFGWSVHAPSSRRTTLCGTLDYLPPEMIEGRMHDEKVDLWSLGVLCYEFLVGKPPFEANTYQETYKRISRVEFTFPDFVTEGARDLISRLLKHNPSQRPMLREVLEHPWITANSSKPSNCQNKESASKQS
# UniProt Q96GD4, whole entry: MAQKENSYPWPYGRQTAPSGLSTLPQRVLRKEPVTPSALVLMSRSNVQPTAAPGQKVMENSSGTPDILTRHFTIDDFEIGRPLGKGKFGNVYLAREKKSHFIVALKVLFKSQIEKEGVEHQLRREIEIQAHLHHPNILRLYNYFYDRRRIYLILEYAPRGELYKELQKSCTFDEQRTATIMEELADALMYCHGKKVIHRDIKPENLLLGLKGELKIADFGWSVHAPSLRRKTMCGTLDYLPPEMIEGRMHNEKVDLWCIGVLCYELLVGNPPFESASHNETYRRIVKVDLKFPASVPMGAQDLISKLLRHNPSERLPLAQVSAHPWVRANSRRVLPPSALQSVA
# UniProt Q9UQB9: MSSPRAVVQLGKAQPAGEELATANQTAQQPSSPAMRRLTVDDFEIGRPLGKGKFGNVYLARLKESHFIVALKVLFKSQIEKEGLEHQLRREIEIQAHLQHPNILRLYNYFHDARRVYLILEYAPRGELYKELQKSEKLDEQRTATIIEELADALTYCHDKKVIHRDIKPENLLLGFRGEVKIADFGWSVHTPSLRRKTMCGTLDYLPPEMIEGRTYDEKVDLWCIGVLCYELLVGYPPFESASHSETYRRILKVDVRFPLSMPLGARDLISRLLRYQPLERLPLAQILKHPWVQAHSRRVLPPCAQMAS
# UniProt P51451: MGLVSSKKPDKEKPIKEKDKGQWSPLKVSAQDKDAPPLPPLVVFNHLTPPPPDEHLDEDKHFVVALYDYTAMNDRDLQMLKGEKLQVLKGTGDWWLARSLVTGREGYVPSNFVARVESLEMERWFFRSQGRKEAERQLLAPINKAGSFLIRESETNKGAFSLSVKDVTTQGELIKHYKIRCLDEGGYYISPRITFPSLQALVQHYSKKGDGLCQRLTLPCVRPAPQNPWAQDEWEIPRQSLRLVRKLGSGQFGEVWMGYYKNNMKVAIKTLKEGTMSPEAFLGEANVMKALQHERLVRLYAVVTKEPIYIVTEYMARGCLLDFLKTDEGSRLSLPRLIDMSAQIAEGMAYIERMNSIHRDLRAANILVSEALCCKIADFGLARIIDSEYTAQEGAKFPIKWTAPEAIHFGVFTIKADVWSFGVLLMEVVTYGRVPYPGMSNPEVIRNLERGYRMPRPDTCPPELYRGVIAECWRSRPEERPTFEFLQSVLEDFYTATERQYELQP
# UniProt P15056, whole entry, looked up: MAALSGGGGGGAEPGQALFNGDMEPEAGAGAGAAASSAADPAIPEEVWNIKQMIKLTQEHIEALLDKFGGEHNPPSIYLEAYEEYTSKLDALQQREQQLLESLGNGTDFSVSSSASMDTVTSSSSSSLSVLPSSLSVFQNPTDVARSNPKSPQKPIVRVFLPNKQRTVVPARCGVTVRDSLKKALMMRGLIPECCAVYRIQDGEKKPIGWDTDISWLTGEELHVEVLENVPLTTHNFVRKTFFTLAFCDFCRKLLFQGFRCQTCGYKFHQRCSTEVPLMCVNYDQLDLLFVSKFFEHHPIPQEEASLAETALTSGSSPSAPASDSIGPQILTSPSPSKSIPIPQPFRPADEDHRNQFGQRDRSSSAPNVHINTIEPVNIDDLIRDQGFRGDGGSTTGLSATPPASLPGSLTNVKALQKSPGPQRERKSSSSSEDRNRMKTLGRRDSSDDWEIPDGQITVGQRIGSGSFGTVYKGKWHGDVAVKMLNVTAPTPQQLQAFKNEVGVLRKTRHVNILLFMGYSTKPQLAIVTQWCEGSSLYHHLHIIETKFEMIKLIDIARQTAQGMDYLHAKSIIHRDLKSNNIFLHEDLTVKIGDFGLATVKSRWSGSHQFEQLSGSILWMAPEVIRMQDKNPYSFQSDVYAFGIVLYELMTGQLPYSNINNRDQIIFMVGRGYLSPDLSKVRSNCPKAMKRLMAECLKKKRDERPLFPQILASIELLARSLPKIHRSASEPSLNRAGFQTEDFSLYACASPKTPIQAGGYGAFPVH
# UniProt Q06187: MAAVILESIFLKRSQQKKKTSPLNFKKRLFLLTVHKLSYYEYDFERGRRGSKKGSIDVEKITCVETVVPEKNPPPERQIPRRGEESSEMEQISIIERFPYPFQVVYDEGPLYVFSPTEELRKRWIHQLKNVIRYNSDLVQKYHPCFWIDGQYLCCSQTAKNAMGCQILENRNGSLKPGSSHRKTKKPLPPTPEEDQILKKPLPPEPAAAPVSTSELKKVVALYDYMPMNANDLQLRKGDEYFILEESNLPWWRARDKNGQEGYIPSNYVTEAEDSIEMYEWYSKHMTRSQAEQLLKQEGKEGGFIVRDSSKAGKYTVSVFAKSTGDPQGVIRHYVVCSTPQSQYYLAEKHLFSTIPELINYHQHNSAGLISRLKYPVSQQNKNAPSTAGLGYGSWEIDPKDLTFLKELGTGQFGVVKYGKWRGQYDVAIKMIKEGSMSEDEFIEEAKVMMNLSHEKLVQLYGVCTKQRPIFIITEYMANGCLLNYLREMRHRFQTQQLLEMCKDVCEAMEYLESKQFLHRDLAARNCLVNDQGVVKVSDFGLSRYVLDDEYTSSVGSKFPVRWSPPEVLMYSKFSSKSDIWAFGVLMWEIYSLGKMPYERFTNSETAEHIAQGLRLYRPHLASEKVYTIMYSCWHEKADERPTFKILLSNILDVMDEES
# UniProt P51813: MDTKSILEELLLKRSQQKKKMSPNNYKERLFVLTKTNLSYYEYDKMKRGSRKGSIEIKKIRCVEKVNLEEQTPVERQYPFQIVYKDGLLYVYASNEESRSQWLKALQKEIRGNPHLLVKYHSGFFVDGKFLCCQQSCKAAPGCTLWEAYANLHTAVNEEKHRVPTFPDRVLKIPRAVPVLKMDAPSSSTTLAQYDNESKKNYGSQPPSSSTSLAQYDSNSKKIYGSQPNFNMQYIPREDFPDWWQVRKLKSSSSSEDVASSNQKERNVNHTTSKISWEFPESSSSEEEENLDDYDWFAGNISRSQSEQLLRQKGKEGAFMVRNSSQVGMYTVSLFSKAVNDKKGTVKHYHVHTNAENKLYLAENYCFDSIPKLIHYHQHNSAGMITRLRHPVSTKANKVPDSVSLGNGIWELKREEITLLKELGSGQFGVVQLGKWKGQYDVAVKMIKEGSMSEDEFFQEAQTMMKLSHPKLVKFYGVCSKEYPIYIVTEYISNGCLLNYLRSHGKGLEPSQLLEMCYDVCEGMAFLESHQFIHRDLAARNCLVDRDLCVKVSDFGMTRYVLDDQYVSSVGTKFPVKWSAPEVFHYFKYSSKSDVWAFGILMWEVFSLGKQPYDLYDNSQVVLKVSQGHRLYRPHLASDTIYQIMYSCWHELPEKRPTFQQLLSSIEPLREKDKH
# Counter-ions that a name gives are not always drawn. This is one part of the list. The calls rarely recur for the same compound in another form.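 Kinases were expressed as nanoluciferase fusions in K562 cells and luminescence was read every 4 h between 2 and 18 h as percent of control, DMSO set to 100% and a positive control to 0%. A time point counts as decreased when the signal drops significantly (2 sigma). The hit call is the authors' own, does not follow from the count of time points alone, and its rule is not shown.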
# Key:
# Settings in all cases: K562; 2-18 h
# STK38 = STK38 (UniProt Q15208); test: kinase-Nluc reporter destabilization hit call (1 = scored as downregulated) (binary); higher = compound decreases kinase abundance
# SYK = SYK (UniProt P43405); test: as above
# TEC = TEC (UniProt P42680); test: as above
# TYK2 = TYK2 (UniProt P29597); test: as above
# ULK3 = ULK3 (UniProt Q6PHR2); test: as above
# YES1 = YES1 (UniProt P07947); test: as above
# ZAK = ZAK (UniProt Q9NYL2); test: as above
# ZAP70 = ZAP70 (UniProt P43403); test: as above
# ABL1 = ABL1 (UniProt P00519); test: number of time points (of 5) at which kinase-Nluc abundance scored as decreased, DMSO-normalised (count); higher = more persistent destabilization
# AKT1 = AKT1 (UniProt P31749); test: as above
# ALK = ALK (UniProt Q9UM73); test: as above
# ARAF = ARAF (UniProt P10398); test: as above
# AURKA = AURKA (UniProt O14965); test: as above
# AURKB = AURKB (UniProt Q96GD4); test: as above
# AURKC = AURKC (UniProt Q9UQB9); test: as above
# BLK = BLK (UniProt P51451); test: as above
# BRAF = BRAF (UniProt P15056); test: as above
# BRAF_V600E = test: as above
# BTK = BTK (UniProt Q06187); test: as above
# BMX = BMX (UniProt P51813); test: as above
Structure (SMILES),kinase-Nluc reporter destabilization hit call (STK38),kinase-Nluc reporter destabilization hit call (SYK),kinase-Nluc reporter destabilization hit call (TEC),kinase-Nluc reporter destabilization hit call (TYK2),kinase-Nluc reporter destabilization hit call (ULK3),kinase-Nluc reporter destabilization hit call (YES1),kinase-Nluc reporter destabilization hit call (ZAK),kinase-Nluc reporter destabilization hit call (ZAP70),number of time points (ABL1),number of time points (AKT1),number of time points (ALK),number of time points (ARAF),number of time points (AURKA),number of time points (AURKB),number of time points (AURKC),number of time points (BLK),number of time points (BRAF),number of time points (BRAF_V600E),number of time points (BTK),number of time points (BMX)
C=CC(=O)N1C[C@H](Nc2ncnc3[nH]ccc23)CC[C@@H]1C [Ritlecitinib] (10 µM),inactive: 0,inactive: 0,inactive: 0,inactive: 0,inactive: 0,inactive: 0,inactive: 0,inactive: 0,0,0,0,0,0,0,0,0,0,0,0,–
O=c1c(-c2ccc(O)cc2)coc2cc(O)cc(O)c12 [Genistein] (10 µM),inactive: 0,–,inactive: 0,inactive: 0,inactive: 0,inactive: 0,inactive: 0,inactive: 0,0,0,0,0,0,0,0,0,0,0,0,0
CNC(=O)c1cccc2cc(Oc3ccnc4cc(OCC5(N)CC5)c(OC)cc34)ccc12 [Lucitanib] (10 µM),inactive: 0,inactive: 0,inactive: 0,inactive: 0,inactive: 0,inactive: 0,inactive: 0,inactive: 0,0,0,0,0,0,0,0,0,–,0,0,0
CCCCNc1ncc(-c2ccc(CN3CCOCC3)cn2)c(NC2CCC(O)CC2)n1 (stereo not given) (10 µM),inactive: 0,inactive: 0,inactive: 0,inactive: 0,inactive: 0,inactive: 0,inactive: 0,inactive: 0,0,0,0,0,0,0,0,0,0,–,0,0
CC(=O)NCC(=O)N1[C@@H]2CC[C@H]1c1ccc(Nc3ncc(C(F)(F)F)c(NC4CCC4)n3)cc12 (2.5 µM),inactive: 0,–,inactive: 0,inactive: 0,active: 1,inactive: 0,inactive: 0,inactive: 0,4,0,1,0,4,3,0,3,0,3,0,4
Cc1cc(N2CCOCC2)cc2[nH]c(-c3c(NC[C@@H](O)c4cccc(Cl)c4)cc[nH]c3=O)nc12 (10 µM),inactive: 0,–,inactive: 0,inactive: 0,inactive: 0,inactive: 0,inactive: 0,inactive: 0,4,0,1,0,1,4,0,3,0,1,0,0
COc1c(Cl)cc2c([nH]c3cnccc32)c1NC(=O)c1cccnc1C (10 µM),inactive: 0,inactive: 0,inactive: 0,inactive: 0,inactive: 0,inactive: 0,inactive: 0,inactive: 0,0,0,0,0,0,0,0,0,–,0,0,0
CC(C)(C#N)c1ccc(N2C(=O)OCc3cnc4ccc(-c5cnc6ccccc6c5)cc4c32)cc1 (2.5 µM),inactive: 0,inactive: 0,inactive: 0,inactive: 0,inactive: 0,inactive: 0,inactive: 0,inactive: 0,0,0,0,0,0,0,0,0,–,0,0,0
COc1cc(C(=O)NC2CCN(C)CC2)c(F)cc1Nc1ncc2c(n1)N(C1CCCC1)CC(F)(F)C(=O)N2C [TAK-960 (dihydrochloride)] (2.5 µM),inactive: 0,inactive: 0,inactive: 0,inactive: 0,inactive: 0,inactive: 0,inactive: 0,inactive: 0,0,0,0,0,0,0,0,0,0,–,0,0
CN(C)CCOc1ccc(-c2nc(-c3ccncc3)c(-c3ccc4c(c3)CC/C4=N\O)[nH]2)cc1 (10 µM),inactive: 0,inactive: 0,inactive: 0,inactive: 0,inactive: 0,inactive: 0,inactive: 0,inactive: 0,0,0,0,0,0,0,0,0,–,0,0,0
